Source: paper doi:10.1101/2024.08.20.608744
These are yes or no findings as the source states them, for the method shown. Binding calls can cover weak binding; strength is not graded here.

Amino acid sequences for entries named in this document (tags omitted). A change or cut given only in a name is not applied to a line headed by its entry.
UniProt A0A644F2H1: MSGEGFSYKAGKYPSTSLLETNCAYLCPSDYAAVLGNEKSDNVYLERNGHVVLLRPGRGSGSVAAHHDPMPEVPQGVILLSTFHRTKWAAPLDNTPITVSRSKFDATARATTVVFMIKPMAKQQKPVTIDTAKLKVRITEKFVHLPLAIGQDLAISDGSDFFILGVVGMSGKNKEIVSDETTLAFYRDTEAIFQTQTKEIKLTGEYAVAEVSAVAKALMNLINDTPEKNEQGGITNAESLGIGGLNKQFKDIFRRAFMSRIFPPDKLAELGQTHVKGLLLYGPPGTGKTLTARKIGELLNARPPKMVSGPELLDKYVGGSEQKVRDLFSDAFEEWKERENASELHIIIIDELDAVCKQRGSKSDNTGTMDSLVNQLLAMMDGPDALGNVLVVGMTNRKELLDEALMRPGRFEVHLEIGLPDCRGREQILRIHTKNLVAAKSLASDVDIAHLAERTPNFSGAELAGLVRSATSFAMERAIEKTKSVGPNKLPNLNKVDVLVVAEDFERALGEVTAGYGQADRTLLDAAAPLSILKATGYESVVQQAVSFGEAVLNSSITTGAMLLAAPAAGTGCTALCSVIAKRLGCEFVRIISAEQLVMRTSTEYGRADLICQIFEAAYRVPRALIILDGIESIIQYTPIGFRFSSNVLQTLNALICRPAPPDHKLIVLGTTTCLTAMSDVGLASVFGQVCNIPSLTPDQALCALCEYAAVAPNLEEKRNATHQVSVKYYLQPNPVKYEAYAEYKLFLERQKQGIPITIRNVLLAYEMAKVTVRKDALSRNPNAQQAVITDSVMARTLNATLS

Assays:
Test in all cases: two-hybrid
[1] = molecular target: GlNSF_(114776) (Giardia lamblia (strain ATCC 50803/ WB clone C6))
[2] = molecular target: Glα-SNAP_(10856) (Giardia lamblia)
[3] = molecular target: Glα-SNAP_(17224) (Giardia lamblia) (UniProt A8B9B7)
[4] = molecular target: GlNSF_(112681) (Giardia lamblia (strain ATCC 50803/ WB clone C6))

| binding [1] | binding [2] | binding [3] | binding [4] | Substance |
| --- | --- | --- | --- | --- |
| binds | no binding | no binding |  | GlNSF_(112681) (from UniProt A0A644F1R1) |
|  | binds | binds | binds | GlNSF_(114776) (from UniProt A0A644F2H1) |
